One data set has as its target rGST hnRNPA2B1 (UniProt P22626). The experiment in a line: UV crosslinking SDS-PAGE.
The target of a further data set is rGST APE1 WT (human) (UniProt P27695). In words: UV crosslinking SDS-PAGE. Conditions: residues 1-318.

By UniProt entry, the sequences of proteins in these tests, tags left out. Where a name states a change or a piece, a line headed by the entry shows the natural chain unless it says otherwise.
UniProt P22626: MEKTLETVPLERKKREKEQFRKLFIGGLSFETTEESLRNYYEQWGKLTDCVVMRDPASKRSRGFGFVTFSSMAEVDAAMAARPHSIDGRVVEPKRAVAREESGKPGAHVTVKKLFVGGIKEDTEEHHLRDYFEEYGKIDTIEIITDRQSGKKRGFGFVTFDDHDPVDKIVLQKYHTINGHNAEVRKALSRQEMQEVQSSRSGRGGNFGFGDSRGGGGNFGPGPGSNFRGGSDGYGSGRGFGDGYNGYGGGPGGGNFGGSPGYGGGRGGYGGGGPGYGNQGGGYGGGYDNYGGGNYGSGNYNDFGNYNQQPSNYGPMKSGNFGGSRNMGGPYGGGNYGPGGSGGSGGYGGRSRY
UniProt P27695: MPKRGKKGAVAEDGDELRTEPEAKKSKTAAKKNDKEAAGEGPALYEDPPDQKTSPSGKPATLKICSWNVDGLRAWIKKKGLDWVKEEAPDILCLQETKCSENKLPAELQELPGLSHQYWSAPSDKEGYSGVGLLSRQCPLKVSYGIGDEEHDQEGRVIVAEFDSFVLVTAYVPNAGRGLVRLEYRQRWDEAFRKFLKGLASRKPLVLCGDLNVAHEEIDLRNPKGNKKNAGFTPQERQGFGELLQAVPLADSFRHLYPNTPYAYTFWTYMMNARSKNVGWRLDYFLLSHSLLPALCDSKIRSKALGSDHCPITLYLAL

The exact form of at least one protein or probe is not confirmed. At least one verdict rests on a figure or table, not on a statement of the authors.

AAUGGAUUUUUGGAGCAGG [hsa-miR-1246]: the binding result with rGST hnRNPA2B1 and in the data set with rGST APE1 WT (human) was “binds” in each case.
